From the supplement of paper PMC10398353
Structures can show the parent of a compound that is named as a salt. ± gives the standard deviation of the averaged measurements. The list shows a part of the results. The data scatter; read single values as rough.

system: Salmonella enterica serovar Typhimurium ST313 D23580; experiment: normalized bacterial growth (OD600 20 h minus 0 h, interquartile-mean normalized) (fraction of plate interquartile mean); higher = more bacterial growth (less inhibition); conditions: LPM (pH 5.8, low phosphate, low Mg2+), concentration: 10 µM, temperature: 37 °C

Compound | normalized bacterial growth
CCOc1ccc(C(=O)c2ccc(O)c(O)c2O)cc1 | 0.832
OC1CCN2Cc3ccccc3N=C12 (stereo unspecified) | 0.948
CCCCC(=O)O[C@]1(C(=O)CO)CC[C@H]2[C@@H]3CCC4=CC(=O)CC[C@]4(C)[C@H]3[C@@H](O)C[C@@]21C | 0.839
CCc1cccc2c3c([nH]c12)C(CC)(CC(=O)O)OCC3 (stereo unspecified) [Etodolac] | 1.13
Cc1noc(NS(=O)(=O)c2ccc(N)cc2)c1C | 0.651
CC1=C(CC(=O)O)c2cc(F)ccc2/C1=C\c1ccc([S+](C)[O-])cc1 (stereo unspecified) [Sulindac] | 0.858
OCC(O)C(O)C(O)C(O)C(O)CO (stereo unspecified) | 1.25
COc1cc(O)c(C)c(O)c1 | 0.88
NOCC(=O)O [O-(Carboxymethyl)hydroxylamine hemihydrochloride] | 1.11
C[C@H](CCC(=O)O)[C@H]1CC[C@H]2[C@@H]3CC[C@@H]4CCCC[C@]4(C)[C@H]3CC[C@]12C | 0.879
N=C(N)NC(=O)c1nc(Cl)c(N2CCCCCC2)nc1N | 0.839
CCOC(=O)[C@H](CCc1ccccc1)N[C@@H](C)C(=O)N1CCC[C@H]1C(=O)O | 1.13
CC(=O)N[C@@H](Cc1ccccc1)C(=O)O | 1.14
Cn1nnnc1SCC1=C(C(=O)O)N2C(=O)[C@@H](NC(=O)[C@H](OC=O)c3ccccc3)[C@H]2SC1 | 0.906
Cc1cccc2c3c(ccc12)C1=C(C(=O)C3=O)C(C)CO1 (stereo unspecified) | 0.526
O=C(O)c1cc(O)c(=O)c2c(O)c(O)ccc2c1 | 1.03
CC(=O)Nc1ccc(O)cc1 [Acetaminophen] | 0.898
C=CCSCC(N)C(=O)O (stereo unspecified) | 0.768
Nc1nc(SCc2ccc([N+](=O)[O-])cc2)c2ncn([C@@H]3O[C@H](CO)[C@H](O)C3O)c2n1 (stereo partly drawn) [S-(4-Nitrobenzyl)-6-thioguanosine] | 0.908
COC(=O)[C@@H]1OC(=O)C2OC23[C@@]1(C)CCC1[C@]2(C)C(C[C@H](O)[C@]13C)C(C)(C)[C@H](OC(C)=O)C[C@@H]2OC(C)=O (stereo partly drawn) ["7beta-HYDROXY-7-DESACETOXYKHIVORINIC ACID, METHYL ESTER"] | 0.858
COC(=O)C(C)c1ccc(C(=O)c2cccs2)cc1 (stereo unspecified) | 0.858
COc1ccc2[nH]c([S+]([O-])Cc3ncc(C)c(OC)c3C)nc2c1 (stereo unspecified) [Omeprazole] | 1

Compound | normalized bacterial growth
COc1ccc2[nH]c([S+]([O-])Cc3ncc(C)c(OC)c3C)nc2c1 (stereo unspecified) | 1.02
CCCCC(CC)CN=C(N)N=C(N)NCCCCCCNC(N)=NC(N)=NCC(CC)CCCC (stereo unspecified) | 0.188
Cc1cc(-n2c(=O)[nH]c(=O)n(C)c2=O)ccc1Oc1ccc(SC(F)(F)F)cc1 | 0.865
CCCn1c(=O)c2[nH]c(-c3ccc(S(=O)(=O)O)cc3)nc2n(CCC)c1=O ["1,3-Dipropyl-8-p-sulfophenylxanthine"] | 0.816
CC(C)CCC[C@@H](C)[C@H]1CC[C@H]2[C@@H]3C(=O)C=C4C[C@@H](O)CC[C@]4(C)[C@H]3CC[C@]12C | 1.29
Cc1ccccc1N1C(=O)c2cc(S(N)(=O)=O)c(Cl)cc2NC1C (stereo unspecified) [Metolazone] | 0.963 ± 0.059
CO[C@H]1[C@H](O)[C@@H](O)[C@H](O)[C@H](O)[C@H]1O | 1
COc1ccc(-c2coc3c(OC)c(OC)cc(O)c3c2=O)cc1 | 0.884
O=C1N(c2ccccc2)c2ccccc2C1(Cc1ccncc1)Cc1ccncc1 [Linopirdine] | 0.946
COc1ccc2c(c1)OCC(Cc1ccc(OC)c(OC(C)=O)c1)C2=O (stereo unspecified) | 0.418
OCCOCCN1CCN(C(c2ccccc2)c2ccc(Cl)cc2)CC1 (stereo unspecified) [Hydroxyzine dihydrochloride] | 0.967
OCCOCCN1CCN(C(c2ccccc2)c2ccc(Cl)cc2)CC1 (stereo unspecified) | 0.864
CC(CCC(=O)O)[C@H]1CCC2C3CC[C@@H]4CC(=O)CC[C@]4(C)C3C=C[C@@]21C (stereo partly specified) | 0.966
C=CC1=C(C(=O)O)N2C(=O)[C@@H](NC(=O)/C(=N\OCC(=O)O)c3csc(N)n3)[C@H]2SC1 [Cefixime] | 0.0355
CC(=O)O[C@H]1C[C@@H](OC(C)=O)C(C)(C)C2C[C@@H](O)[C@]3(C)C(CC[C@@]4(C)[C@H](c5ccoc5)OC(=O)[C@H]5O[C@]543)[C@]21C (stereo partly specified) | 0.744
C[C@H]1C[C@@H]2[C@H]([C@@H](O)C[C@@]3(C)[C@H]2CC[C@]3(O)C(=O)COC(=O)CCC(=O)O)[C@@]2(C)C=CC(=O)C=C12 | 1.08
Nc1cc(-c2ccncc2)c[nH]c1=O | 0.863
c1ccc2c(c1)CCCc1cc(NCCN3CCOCC3)nnc1-2 | 0.918
CC(N)C12CC3CC(CC(C3)C1)C2 (stereo unspecified) | 0.911
COC(=O)C(N)CS (stereo unspecified) | 1.05
CN(C)CC[C@@H](c1ccc(Cl)cc1)c1ccccn1 | 0.946
CN(CCOc1ccc(CC2SC(=O)NC2=O)cc1)c1ccccn1 (stereo unspecified) | 0.913

As a working copy, part of the list above:
Compound | normalized bacterial growth
CC(C)CCC[C@@H](C)[C@H]1CC[C@H]2[C@@H]3C(=O)C=C4C[C@@H](O)CC[C@]4(C)[C@H]3CC[C@]12C | 1.29
Cc1ccccc1N1C(=O)c2cc(S(N)(=O)=O)c(Cl)cc2NC1C (stereo unspecified) [Metolazone] | 0.963 ± 0.059
CO[C@H]1[C@H](O)[C@@H](O)[C@H](O)[C@H](O)[C@H]1O | 1
COc1ccc(-c2coc3c(OC)c(OC)cc(O)c3c2=O)cc1 | 0.884
O=C1N(c2ccccc2)c2ccccc2C1(Cc1ccncc1)Cc1ccncc1 [Linopirdine] | 0.946
COc1ccc2c(c1)OCC(Cc1ccc(OC)c(OC(C)=O)c1)C2=O (stereo unspecified) | 0.418
OCCOCCN1CCN(C(c2ccccc2)c2ccc(Cl)cc2)CC1 (stereo unspecified) [Hydroxyzine dihydrochloride] | 0.967
OCCOCCN1CCN(C(c2ccccc2)c2ccc(Cl)cc2)CC1 (stereo unspecified) | 0.864
CC(CCC(=O)O)[C@H]1CCC2C3CC[C@@H]4CC(=O)CC[C@]4(C)C3C=C[C@@]21C (stereo partly specified) | 0.966
C=CC1=C(C(=O)O)N2C(=O)[C@@H](NC(=O)/C(=N\OCC(=O)O)c3csc(N)n3)[C@H]2SC1 [Cefixime] | 0.0355
CC(=O)O[C@H]1C[C@@H](OC(C)=O)C(C)(C)C2C[C@@H](O)[C@]3(C)C(CC[C@@]4(C)[C@H](c5ccoc5)OC(=O)[C@H]5O[C@]543)[C@]21C (stereo partly specified) | 0.744
C[C@H]1C[C@@H]2[C@H]([C@@H](O)C[C@@]3(C)[C@H]2CC[C@]3(O)C(=O)COC(=O)CCC(=O)O)[C@@]2(C)C=CC(=O)C=C12 | 1.08
Nc1cc(-c2ccncc2)c[nH]c1=O | 0.863
c1ccc2c(c1)CCCc1cc(NCCN3CCOCC3)nnc1-2 | 0.918
CC(N)C12CC3CC(CC(C3)C1)C2 (stereo unspecified) | 0.911
COC(=O)C(N)CS (stereo unspecified) | 1.05
CN(C)CC[C@@H](c1ccc(Cl)cc1)c1ccccn1 | 0.946

Following part:

Compound | normalized bacterial growth
CCC(=O)OCC(=O)[C@@]1(OC(=O)CC)[C@H](C)C[C@H]2[C@H]3[C@H]([C@@H](O)C[C@@]21C)[C@@]1(C)C=CC(=O)C=C1C[C@H]3Cl [Alclometasone dipropionate] | 0.699
O=C(CC(=O)c1ccccc1)c1ccccc1 | 0.938
O=C(OCc1ccccc1)c1ccccc1 | 0.915
N#C/C(=C\c1ccc(O)c(O)c1)C(=O)NCCCNC(=O)/C(C#N)=C/c1ccc(O)c(O)c1 [Tyrphostin AG 537] | 1.2
N=C(N)N/N=C/c1c(Cl)cccc1Cl [Guanabenz acetate] | 0.892
N=C(N)N/N=C/c1c(Cl)cccc1Cl | 0.8
OC(CCN1CCCCC1)(c1ccccc1)C1CCCCC1 (stereo unspecified) [Trihexyphenidyl hydrochloride] | 1.1
Cc1cc(O)c(C=O)c2c1C(=O)Oc1c(COC(=O)/C=C/C(=O)O)c(O)c(C(=O)O)c(C)c1O2 | 0.871
CN(C)CCOC(=O)COc1ccc(Cl)cc1 [Centrophenoxine hydrochloride] | 1.31
Brc1c(NC2=NCCN2)ccc2nccnc12 | 0.553
COc1ccc(-c2cc(C(F)F)nn2-c2ccc(S(N)(=O)=O)cc2)cc1F | 0.906
CC(Oc1ccccc1)C(=O)N[C@@H]1C(=O)N2[C@@H]1SC(C)(C)[C@@H]2C(=O)O (stereo partly specified) | 1.12
CC(C)NC[C@H](O)c1ccc(O)c(O)c1 [R(-)-Isoproterenol (+)-bitartrate] | 0.777
COc1cc(C(=O)O[C@H]2C/C(C)=C/CC/C(C)=C/[C@H](O)[C@@H]2C(C)C)ccc1O | 0.905
C[C@@H]1CC[C@@]2(OC1)O[C@H]1C[C@H]3[C@@H]4CC[C@@H]5C[C@@H](O)CC[C@]5(C)[C@H]4CC[C@]3(C)[C@H]1[C@@H]2C | 0.901
NCCS(=O)O [Hypotaurine] | 1.25
N[C@@H](C(=O)N[C@@H]1C(=O)N2C(C(=O)O)=C(Cl)CS[C@H]12)c1ccccc1 [Cefaclor] | 1.35 ± 0.088
N[C@@H](C(=O)N[C@@H]1C(=O)N2C(C(=O)O)=C(Cl)CS[C@H]12)c1ccccc1 | 1.03
CN1CCC[C@@H]1c1cccnc1.Cc1ccc(C(=O)O[C@H](C(=O)O)[C@@H](OC(=O)c2ccc(C)cc2)C(=O)O)cc1 [(+)-Nicotine (+)-di-p-toluoyl tartrate] | 1.13
Cn1c([N+](=O)[O-])cnc1COC(N)=O | 1.07
NC(N)=O | 1.11
CN(C)[C@@H]1C(O)=C(C(N)=O)C(=O)[C@@]2(O)C(O)=C3C(=O)c4c(O)ccc(Cl)c4[C@@H](O)[C@H]3C[C@@H]12 [Demeclocycline hydrochloride] | 0.00794

Compound | normalized bacterial growth
O=C(O)/C(=C\c1c(C(=O)O)[nH]c2cc(Cl)cc(Cl)c12)c1ccccc1 | 0.734
Clc1ccc(COC(Cn2ccnc2)c2ccc(Cl)cc2Cl)c(Cl)c1 (stereo unspecified) [Miconazole] | 0.858
Clc1ccc(COC(Cn2ccnc2)c2ccc(Cl)cc2Cl)c(Cl)c1 (stereo unspecified) | 0.975
NCC=CC(=O)O (stereo in doubt) [cis-4-Aminocrotonic acid] | 0.929
Cc1cc(=O)n(-c2ccccc2)n1C | 0.986
CC(=O)[C@H]1CC[C@H]2[C@@H]3CC=C4C[C@@H](OS(=O)(=O)O)CC[C@]4(C)[C@H]3CC[C@]12C [Pregnenolone sulfate sodium] | 0.946
NC12CC3CC(CC(C3)C1)C2 [Amantadine hydrochloride] | 0.89
NC12CC3CC(CC(C3)C1)C2 [Adamantamine fumarate] | 0.938
N#C/C(=C\c1ccc(O)c(O)c1)C(=O)c1ccc(O)c(O)c1 [Tyrphostin AG 538] | 0.863
O=c1c2ccccc2oc2ccccc12 | 0.505
O=C(O)c1cc(O)c2c(c1)[C@@H]([C@H]1c3cc(C(=O)O)cc(O)c3C(=O)c3c(O[C@@H]4O[C@H](CO)[C@@H](O)[C@H](O)[C@H]4O)cccc31)c1cccc(O[C@@H]3O[C@H](CO)[C@@H](O)[C@H](O)[C@H]3O)c1C2=O | 1.08
CC1(C2CCCC2)Cc2cc(OCC(=O)O)c(Cl)c(Cl)c2C1=O (stereo unspecified) | 1.04
N=C1C=CC(=C(c2ccc(N)cc2)c2ccc(N)cc2)C=C1 | 0.866
C=C1C2CC[C@@]3(C)[C@H](c4ccoc4)OC(=O)C[C@]13O[C@H]1CC(O)C(C)(C)C(CC(=O)OC)[C@@]21C (stereo partly drawn) [3alpha-HYDROXY-3-DEOXYANGOLENSIC ACID METHYL ESTER] | 1.33
Brc1ccc([C@H]2CN3CCSC3=N2)cc1 [S(-)-p-Bromotetramisole oxalate] | 0.411
C=CC[C@H](N)C(=O)O [L-allylglycine] | 1.16
C[C@@H]1NC(=O)NC1=O [Methylhydantoin-5-(L)] | 0.985
O=C(O)c1ccccc1Nc1ccccc1 [N-Phenylanthranilic acid] | 1.17
COc1c(O)cc2c(-c3ccccc3)cc(=O)oc2c1OC | 0.905
CC(=O)O[C@H]1CC[C@]2(C)C3=C(CC[C@H]2C1(C)C)[C@]1(C)CC[C@H]([C@H](C)CCC=C(C)C)[C@@]1(C)CC3 | 1.01
